From paper PMC8572004
No constants are given. Whether binding was seen depends on the method and setting. Binding calls can cover weak binding; strength is not graded here. For part of these data: Binding seen in cells or lysates may run through a third protein. For part of these data: Sequences can lack the tags named with a protein.

Amino acid sequences for entries named in this document (tags omitted). A change or cut given only in a name is not applied to a line headed by its entry.
UniProt Q9VBP2: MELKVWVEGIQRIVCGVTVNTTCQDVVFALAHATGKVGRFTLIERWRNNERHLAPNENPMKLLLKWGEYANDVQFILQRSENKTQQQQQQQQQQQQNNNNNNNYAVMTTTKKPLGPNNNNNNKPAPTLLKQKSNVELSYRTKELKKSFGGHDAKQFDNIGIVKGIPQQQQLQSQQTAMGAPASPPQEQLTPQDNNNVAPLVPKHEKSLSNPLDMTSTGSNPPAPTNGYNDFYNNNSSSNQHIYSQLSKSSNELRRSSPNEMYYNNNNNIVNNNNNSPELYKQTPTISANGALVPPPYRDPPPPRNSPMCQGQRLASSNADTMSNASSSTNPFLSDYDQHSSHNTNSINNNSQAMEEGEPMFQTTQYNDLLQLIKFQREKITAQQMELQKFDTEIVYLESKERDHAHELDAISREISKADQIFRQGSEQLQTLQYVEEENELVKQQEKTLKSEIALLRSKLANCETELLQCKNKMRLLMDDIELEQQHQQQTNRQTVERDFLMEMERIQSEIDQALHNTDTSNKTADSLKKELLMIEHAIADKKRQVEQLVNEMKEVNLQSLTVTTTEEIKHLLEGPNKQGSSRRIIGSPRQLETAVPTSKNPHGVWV

What was measured:
[1] = target: full-length Drosophila RASSF8, LexA fusion (two-hybrid bait) (Drosophila) (UniProt Q9VBP2); test: two-hybrid; screen by Hybrigenics; full-length RASSF8 as LexA fusion in pB29 as bait; Drosophila whole-embryo cDNA collection (RP2) as prey
[2] = target: HA-tagged RASSF8 (Drosophila); test: co-IP; two constructs co-expressed in S2 cells; HEPES lysis buffer (50 mM HEPES pH 7.4, 150 mM NaCl, 0.5% Triton X-100); Protein A/G sepharose and antibodies, 2 h at 4°C; immunoblot

Binder | binding [1] | binding [2]
Sec15 (amino acids 59-234), two-hybrid prey (domain or fragment, UniProt Q9VDE6 59-234) IDSIQELLQVRTQAQQLHNEVHSLDTSLRQISASLIQQGNDLVRARQIESNLASAIEALKSCLPALECYMKFTQQAKNKQYYQALRTLETLETEHLTRLKTHNYRFATQMQIQIPIIKENIRRSSASDFREFLENIRKFSPRIGELAITHTKQLQKRDINAIIAEHMQQMNGGEAG | binds | 
Myc-tagged Sec15 (protein, UniProt Q9VDE6 1-766) MSKVTVQDIEAVDDYWGPTFRSILEGNNTKQIGDQLEQRIRSHDKEIERICNLYYQGFIDSIQELLQVRTQAQQLHNEVHSLDTSLRQISASLIQQGNDLVRARQIESNLASAIEALKSCLPALECYMKFTQQAKNKQYYQALRTLETLETEHLTRLKTHNYRFATQMQIQIPIIKENIRRSSASDFREFLENIRKFSPRIGELAITHTKQLQKRDINAIIAEHMQQMNGGEAGGAGAGGDDDGANVSAQDLIDFSPIYRCLHIYMVLGQREYFEKDYRQQRRDQAKLVLQPPPNMHDNLEAYKTYICAIVGFFVVEDHVKNTAGDVVTSSYLEDLWSSSLTKFVNEISMSSSSCTDPNILLRIKNLIMLSINTFKCYGYTVNILWELLHNMRDHYNEVLLQRWVHVFREILDKEQFLPMVVQNTEEYECIIERFPFHSEQLENAPFPKKFPFSRMVPEVYHQAKEFMYACMKFAEELTLSPNEVAAMVRKAANLLLTRSFSGCLSVVFRQPSITLTQLIQIIIDTQYLEKAGPFLDEFVCHMTNTERSVSQTPSAMFHVARQDAEKQVGLRICSKIDEFFELSAYDWLLVEPPGIASAFITDMISYLKSTFDSFAFKLPHIAQAACRRTFEHIAEKIYSIMYDEDVKQISTGALTQINLDLMQCEFFAASEPVPGLKEGELSKYFLRNRQLLDLLILEEWSTYFHDYGKQENRYHLVQPQSIIVILEKIREADKKPIFSLVRKNDKKKLLETVLKQLKHIADRQN |  | binds
Myc-tagged Sec5 (protein, UniProt Q9VQQ9 1-894) MAPQPVVTGLSPKEGPPGTRVIIRGEFLGTRVQDLIGLKICGSDCLLSAEWKSPNKIIARTGPAKGKGDIIVTTLSGGVGTSTVQFRAYHETIGPLKESAVWIEESPSQNFAWGRRTLAQSGLTQEDPLGLSIEGNEQKIPEDLRDLFPEACGDLSQEHFSPAWFLLENHLATSFEDLKAGLSYLKRKVESQKEGQLSFLKSNAGSVIDQLDTLMNIRDKLQEDVKLHGNETLNILETSIENSISESQKIFTDVLVRKEKADSTRSVLFALSRHKFLFCLPNSVDRRAKAGEYDIVVNDYSRAKNLFGKTEIPIFRKVLEEVDHRILSIRKQLHEKVVKMPQSVEQQKKLIKALISLELQQSGTPIGDKLRNIDPAWDAIEARAKYLEWTFRQTFDQHTSKDSGAQEKAKNRDSSQAPNRVNFCEELCDIAASQLPDLWRLGQLYFTGELRGPHDPKPGDFKRMVLNAIEKFCVYLRLAILIATDQRALRQSSGLAWPIGSASATHQFLPWIPQCLRFTRIAYATLISLDLPSEALDIIQKLIDEVRLFCFSIIFKRATDRCKKLGSQETWELGVEEYPGATLLPAALETLLIETLDEVQSVCMQRETREGNLLEPQSDGQREVTQRLQEFLSAFSAVIEELAFHSHDEETPTHNVSQLLGFPNAQQPDSVAGSGGAAAVTWEQRMLCCLANYAYCNKIFFPRLGDIFVRYGYPLPTLAIETARYTVNQLFTNLLEEYVEHKGDPLVGTIEPSMYLGRFQWDHEMEIGQLRPYAHECCDNLVGVYSEIYSISPALLRPILESIVQTISEELARLMSCVQRFSFTGAIQAHVDIRLLRDSLEGYVNETAKNYFMEALEAINPPLSGEQKRKADEILERVKRNMRLQLLCFSVKDP |  | no binding
